Reference: PMC9895993
These are yes or no findings as the source states them, for the method shown. Tags and fused reporters may be left off the sequences shown.

Target: YbeY from Staphylococcus aureus (SaYbeY), full length with C-terminal hexahistidine tag (Staphylococcus aureus Mu50) (UniProt P67136)
Experiment: SEC-MALS; Superdex-200 10/300 GL; YbeY loaded at 1 mg/ml; 20 mM Tris-HCl (pH 8.0), 150 mM NaCl, 2 mM ZnCl2; 18-angle MALS detector; both purified

B1: YbeY from Staphylococcus aureus (SaYbeY), full length with C-terminal hexahistidine tag (enzyme, UniProt P67136 1-155)
chain: MFTIDFSDHTGLVKDAWYKQIEDLLEFAKKEEHIEDDAELSVTFVDKQEIQEINRTYRDKDKVTDVISFALEEDEPEIDFSGLDIPRVLGDIIICTDVAQEQANNYGHSFERELGFLALHGFLHLLGYDHMTEADEKEMFGRQDTILNAYGLTRD
With B1 the binding was “no binding (tested: 1 mg/ml)”.
